In patent publication US11952337B2, “Bioenergetically active esters for health and disease” (University of Kansas, priority 2018, dated 2024):
For at least one compound, name, drawing or mass did not settle the structure.

Experiments:
SH-SY5Y cells [1] = test: Glycolysis flux (ECAR), Seahorse Extracellular Flux analyzer; type: cell-based, human; details: 2 mM, FIG. 1B
Method: (§1) In these experiments, oligomycin, FCCP, rotenone/antimycin, and 2-deoxyglucose were used to determine the proportion of oxygen that was consumed as part of the mitochondrial “leak” and “ATP production”; maximum and spare flux rates were also determined using standard established flux analysis protocols. […] FIG. 1D schematically summarizes this pathway.
(§2) For these measurements, oligomycin, FCCP, and rotenone/antimycin were used to determine mitochondrial respiration leak rates, the maximum oxygen consumption rate, and the non-mitochondrial oxygen consumption rate. […] The dose-response was logarithmic over a test range of 0.1 to 2 mM (FIG. 4). FIG. 3A illustrates respiration peaking at ˜40% enhancement, which is the maximum possible when mitochondria are chemically uncoupled.

SH-SY5Y cells [2] = test: Respiration / oxygen consumption rate (OCR), Seahorse Extracellular Flux analyzer; type: cell-based, human; details: experiments not further specified
Method: as §1, §2

## CC(=O)C(=O)O [pyruvate, reference compound]
SH-SY5Y cells [1]
  Effect on glycolysis flux: decreases glycolysis flux
SH-SY5Y cells [2]
  Effect on respiration, in words: effectively promote respiration
